Assay results as given in US20220175977A1 (SORICIMED BIOPHARMA, published 2022).
These are yes or no findings as the source states them, for the method shown. Some binding calls cover weakened binding; strength is not graded here.

Sequences of proteins named here, by UniProt entry; tags and fusion partners are left off.
UniProt Q9H1D0: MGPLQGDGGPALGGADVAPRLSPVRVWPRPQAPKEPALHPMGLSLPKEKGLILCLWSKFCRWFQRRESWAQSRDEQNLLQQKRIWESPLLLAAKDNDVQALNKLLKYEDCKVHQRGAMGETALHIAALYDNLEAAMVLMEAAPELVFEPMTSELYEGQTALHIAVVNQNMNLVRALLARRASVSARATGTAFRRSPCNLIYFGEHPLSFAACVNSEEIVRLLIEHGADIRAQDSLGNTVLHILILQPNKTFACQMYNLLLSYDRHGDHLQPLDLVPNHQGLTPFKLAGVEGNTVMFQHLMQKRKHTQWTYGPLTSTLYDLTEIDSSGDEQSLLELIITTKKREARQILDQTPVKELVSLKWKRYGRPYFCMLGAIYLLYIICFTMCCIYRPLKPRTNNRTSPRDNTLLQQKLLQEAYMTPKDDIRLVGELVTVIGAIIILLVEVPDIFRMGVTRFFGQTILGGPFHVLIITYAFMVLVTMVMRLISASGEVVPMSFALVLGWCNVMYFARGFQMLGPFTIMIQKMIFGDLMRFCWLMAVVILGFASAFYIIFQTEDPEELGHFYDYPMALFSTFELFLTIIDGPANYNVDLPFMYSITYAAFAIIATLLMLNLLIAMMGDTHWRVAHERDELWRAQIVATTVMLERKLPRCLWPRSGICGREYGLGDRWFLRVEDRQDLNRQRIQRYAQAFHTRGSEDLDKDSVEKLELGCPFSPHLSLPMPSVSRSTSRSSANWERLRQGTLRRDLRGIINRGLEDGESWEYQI

Assays:
[1] = target: TRPV6 expressed from a transfected TRPV6 expression vector (UniProt Q9H1D0); experiment: fluorescence microscopy, transfected HEK293 cells
[2] = target: TRPV6 expressed from a transfected TRPV6 expression vector (UniProt Q9H1D0); experiment: fluorescence microscopy, HEK-293 cells transfected with TRPV6 expression vector
[3] = target: TRPV6 expressed from a transfected TRPV6 expression vector (UniProt Q9H1D0); experiment: fluorescence microscopy, transfected HEK-293 cells (FIG. 6)

Measured: binding

EGKLSSNDTEGGLCKEFLHPSKVDLPR (Cy5.5 at the single cysteine thiol (maleimide-activated reaction)) [SorC27-cy5.5]
binds: all assays above
